Laboratory results: PubChem BioAssay AID1224826 (NIAID, 2016)

- Aim: 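Knock-downs that raise or lower Tnf reporter signal after endotoxin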 (primary screen)
- Cells: RAW264.7 G9 macrophages from mouse bearing reporters for p65 (GFP) and the Tnf promoter (mCherry)
- Knock-down reagent: siRNA pool against mouse genes, 100 nM
- Duration: 16 h of LPS stimulation, after 2 days of siRNA transfection
- Challenge: bacterial lipopolysaccharide (Salmonella minnesota R595), 10 ng/ml
- Detection: 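Nuclear mCherry signal of the Tnf promoter reporter measured by imaging after background removal, scaled to each plate median and turned into robust z-scores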
- Direction: Tnf reporter robust z-score: higher = stronger Tnf promoter reporter signal after LPS; Tnf reporter intensity: higher = stronger Tnf promoter reporter signal
- Hit rule: 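a well counts as active at a score of -1.3 or below (Tlr4 knock-down control median) or above 3 (raised signal); controls and wells holding fewer than 50 cells are excluded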
- Meaning of the calls: active = Tnf reporter clearly lowered or raised; inactive = no clear change in Tnf reporter
The whole screen tested about 17,000 reagents; below is an unselected part. Over the whole deposit, about 1,110 (6.6%) were called active. 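Active means lowered or raised reporter signal; replicate intensities are raw and not normalised per plate.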 Entries without a mark were called inactive.

Target gene,Tnf reporter robust z-score,fewer than 50 cells in well,"Tnf reporter intensity, replicate 1","Tnf reporter intensity, replicate 2"
Jchain,,fewer than 50 cells per well; well left out of calls,87.1,60.6
Timm10b,-1.18,enough cells in well,149,82.2
Traf2,-1.21,enough cells in well,157,110
P2rx5,2.01,enough cells in well,421,293
Rrad,0.24,enough cells in well,365,201
Irf8,-1.43 (active),enough cells in well,127,93.2
Zfp207,-1.14,enough cells in well,90.2,61.6
Zdhhc12,,fewer than 50 cells per well; well left out of calls,66.5,33.3
Pip4p2,-0.03,enough cells in well,247,69.5
Ift22,0.94,enough cells in well,159,182
Adam17,1.28,enough cells in well,223,263
Sepsecs,-1.66 (active),enough cells in well,27,62.3
Zbtb8os,-0.38,enough cells in well,187,107
Psmc3,,fewer than 50 cells per well; well left out of calls,219,140
Lrfn3,-0.05,enough cells in well,183,148
Rbm14,-0.43,enough cells in well,116,102
Vkorc1,,fewer than 50 cells per well; well left out of calls,46.3,76.9
2310030G06Rik,,fewer than 50 cells per well; well left out of calls,59.9,33.1
Spty2d1,-0.83,enough cells in well,149,85.7
Spag4,-0.81,enough cells in well,79.9,27.3
Oas1h,0.47,enough cells in well,243,153
Paics,-0.25,enough cells in well,215,171
Or51i2,2.74,enough cells in well,190,226
Wnk4,-1.02,enough cells in well,146,89.9
Adissp,1.85,enough cells in well,342,155
Vstm2b,,fewer than 50 cells per well; well left out of calls,132,80.4
Ngfr,-0.18,enough cells in well,211,184
Or5al7,0.97,enough cells in well,213,229
Or10d1c,2.2,enough cells in well,236,251
Eny2,,fewer than 50 cells per well; well left out of calls,184,90.6
Tgds,,fewer than 50 cells per well; well left out of calls,307,50.4
Arl13b,1.29,enough cells in well,153,247
Kcnip1,0.26,enough cells in well,206,145
Fanca,1.81,enough cells in well,387,351
Timm29,,fewer than 50 cells per well; well left out of calls,172,74
Spatc1l,-0.46,enough cells in well,207,59.6
Cstb,-0.1,enough cells in well,194,229
Mtx2,0.16,enough cells in well,209,128
Ercc5,0.83,enough cells in well,323,262
Slco5a1,,fewer than 50 cells per well; well left out of calls,79,74.8

Reprinted from above, 2 entries:
Target gene,Tnf reporter robust z-score,fewer than 50 cells in well,"Tnf reporter intensity, replicate 1","Tnf reporter intensity, replicate 2"
Timm29,,fewer than 50 cells per well; well left out of calls,172,74
Spatc1l,-0.46,enough cells in well,207,59.6
